Data as given in PubChem BioAssay AID256 (DTP/NCI, 2004).
The list is a part of this screen's results and no random one: it is rich in T/C values a quarter to a half above the control, in often repeated tests (any T/C) and in doses without a T/C. Further doses and runs are listed elsewhere. T/C: endpoint of the treated group in % of that of the vehicle group. Some entries give survivors of the animals treated and no T/C: the source holds a T/C of zero for them, seemingly a mark for toxic or unscored doses. Some survivor counts are full or nearly so, which does not show that the dose was tolerated: survival well below the control is almost never listed, so the zero probably covers shortened survival too. Survivors were counted at the toxicity check, usually on the fifth day, unless a day is given; later deaths do not show. Schedule codes are those of the source, read here as Q, the interval in days (D) or hours (H), X, the number of doses. Some entries were tested several times; the results are listed from low to high. For survival time, this PubChem deposit counts one and a half times the control or more as active, and values a quarter to a half above the control carry no call in these data; other NCI protocols may use other cut-offs. Additions like (4×) say how often a value occurs here. Some T/C values carry the count of animals alive at the toxicity check (mostly the fifth day); without a count, all were alive then.

System: CD2F1 mice, L1210 leukemia ip, survival T/C
Assay: NCI In Vivo Anticancer Drug Screen. Data for tumor model L1210 Leukemia (intraperitoneal) in CD2F1 (CDF1) mice
Conditions: higher T/C = longer survival
Summary of the method: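 Read-out first: treated-group measurement over vehicle-control measurement, expressed as a ratio. Animals bore a transplanted tumor line and were dosed with compound or vehicle.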

[1] = T/C endpoint: mean survival time, dose: 75.0 mg/kg/injection, schedule: Q01DX001 (ip), vehicle: saline
[2] = T/C endpoint: mean survival time, dose: 150.0 mg/kg/injection, schedule: Q01DX001 (ip), vehicle: saline
[3] = T/C endpoint: mean survival time, dose: 400.0 mg/kg/injection, schedule: Q04DX003 (ip), vehicle: saline with Tween-80
[4] = T/C endpoint: mean survival time, dose: 100.0 mg/kg/injection, schedule: Q04DX003 (ip), vehicle: saline
[5] = T/C endpoint: mean survival time, dose: 200.0 mg/kg/injection, schedule: Q04DX003 (ip), vehicle: saline
[6] = T/C endpoint: mean survival time, dose: 400.0 mg/kg/injection, schedule: Q04DX003 (ip), vehicle: saline
[7] = T/C endpoint: mean survival time, dose: 200.0 mg/kg/injection, schedule: Q04DX003 (ip), vehicle: saline with Tween-80
[8] = T/C endpoint: mean survival time, dose: 200.0 mg/kg/injection, schedule: Q01DX009 (ip), vehicle: saline with Tween-80
[9] = T/C endpoint: mean survival time, dose: 400.0 mg/kg/injection, schedule: Q01DX009 (ip), vehicle: saline with Tween-80
[10] = T/C endpoint: mean survival time, dose: 100.0 mg/kg/injection, schedule: Q04DX003 (ip), vehicle: saline with Tween-80
[11] = T/C endpoint: mean survival time, dose: 100.0 mg/kg/injection, schedule: Q01DX009 (ip), vehicle: saline with Tween-80
[12] = T/C endpoint: mean survival time, dose: 400.0 mg/kg/injection, schedule: Q01DX001 (ip), vehicle: saline
[13] = T/C endpoint: mean survival time, dose: 50.0 mg/kg/injection, schedule: Q04DX002 (ip), vehicle: saline with Tween-80
[14] = T/C endpoint: mean survival time, dose: 100.0 mg/kg/injection, schedule: Q04DX002 (ip), vehicle: saline with Tween-80

Compound: CN1CCC(O)(C#N)CC1
- survivor count [1]: 0 of 6
- survivor count [2]: 0 of 6
- survivor count (T/C endpoint: mean survival time, dose: 300.0 mg/kg/injection, schedule: Q01DX001 (ip), vehicle: saline): 0 of 6

Compound: CC1(C(=O)O)CCOC1=O (configuration not stated)
- survivor count (T/C endpoint: mean survival time, dose: 400.0 mg/kg/injection, schedule: Q04DX002 (ip), vehicle: saline): 2 of 3

Compound: COc1ccc(-c2nnc(-c3ccc(OC)c(Cl)c3)nn2)cc1Cl
- survivor count [3]: 6 of 6

Compound: C=CCc1cn(C2CC(O)C(CO)O2)c(=O)[nH]c1=O (configuration not stated)
- survivor count (T/C endpoint: mean survival time, dose: 264.0 mg/kg/injection, schedule: Q01DX009 (ip), vehicle: saline): 0 of 6

Compound: O=S(=O)(O)NC1CCCCC1
- survivor count (T/C endpoint: mean survival time, dose: 200.0 mg/kg/injection, schedule: Q01DX009 (ip), vehicle: saline): 0 of 6
- survivor count (T/C endpoint: mean survival time, dose: 400.0 mg/kg/injection, schedule: Q01DX009 (ip), vehicle: saline): 0 of 6

Compound: COC(=O)/C=C/C(=O)NC(N)=O
- survivor count [4]: 3 of 6
- survivor count [5]: 0 of 6
- survivor count [6]: 0 of 6

Compound: O=C(O)c1cc(-c2ccc(F)cc2)nc2ccc(F)cc12
- survivor count [3]: 0 of 6

Compound: CC(C)(C)C1Sc2nc3ccccc3n2C1=O (configuration not stated)
- survivor count (T/C endpoint: mean survival time, dose: 100.0 mg/kg/injection, schedule: Q04DX003 (ip), vehicle: Klucel (hydroxypropylcellulose) (HPC)): 0 of 6
- survivor count (T/C endpoint: mean survival time, dose: 200.0 mg/kg/injection, schedule: Q04DX003 (ip), vehicle: Klucel (hydroxypropylcellulose) (HPC)): 0 of 6
- survivor count (T/C endpoint: mean survival time, dose: 400.0 mg/kg/injection, schedule: Q04DX003 (ip), vehicle: Klucel (hydroxypropylcellulose) (HPC)): 0 of 6

Compound: CN1NC=Nc2c1[nH]cnc2=S
- survivor count (T/C endpoint: mean survival time, dose: 300.0 mg/kg/injection, schedule: Q01DX001 (ip), vehicle: other): 0 of 6

Compound: Clc1nc[nH]c1Cl
- survivor count [7]: 1 of 6
- survivor count [3]: 1 of 6

Compound: CCCCCCCCSC1=C(Cl)C(=O)C(OC)=C(OC)C1=O
- survivor count (T/C endpoint: mean survival time, dose: 50.0 mg/kg/injection, schedule: Q01DX009 (ip), vehicle: saline with Tween-80): 2 of 6 and 4 of 6

Compound: CCOC(=O)c1c(C)[nH]oc1=O
- survivor count [8]: 1 of 6
- survivor count [9]: 3 of 6

Compound: NS(=O)(=O)Cc1ccccc1
- survivor count [5]: 2 of 6
- survivor count [6]: 0 of 6

Compound: CNC(=O)OCc1c(COC(=O)NC)c(-c2ccc(Cl)c(Cl)c2)n2c1Cc1ccccc1C2
- T/C (T/C endpoint: median survival time, dose: 25.0 mg/kg/injection, schedule: Q01DX009 (ip), vehicle: distilled water + Tween-80): 133 % of control
- T/C (T/C endpoint: median survival time, dose: 50.0 mg/kg/injection, schedule: Q01DX009 (ip), vehicle: distilled water + Tween-80): 130 % of control
- T/C (T/C endpoint: median survival time, dose: 200.0 mg/kg/injection, schedule: Q01DX009 (ip), vehicle: distilled water + Tween-80): 128 % of control
- survivor count (T/C endpoint: median survival time, dose: 400.0 mg/kg/injection, schedule: Q01DX009 (ip), vehicle: distilled water + Tween-80): 6 of 6

Compound: Oc1c(Cl)c(Cl)c(O)c(Cl)c1Cl
- survivor count (T/C endpoint: mean survival time, dose: 100.0 mg/kg/injection, schedule: Q01DX001 (ip), vehicle: saline with Tween-80): 0 of 3
- survivor count (T/C endpoint: mean survival time, dose: 200.0 mg/kg/injection, schedule: Q01DX001 (ip), vehicle: saline with Tween-80): 0 of 3
- survivor count (T/C endpoint: mean survival time, dose: 400.0 mg/kg/injection, schedule: Q01DX001 (ip), vehicle: saline with Tween-80): 0 of 3

Compound: CNC(Cc1ccccc1)c1ccccc1 (configuration not stated)
- survivor count [7]: 0 of 6
- survivor count [3]: 0 of 6

Compound: CCOC(=O)CC(=O)c1c(C)cc(C)c(Br)c1C
- survivor count [10]: 6 of 6

Compound: Nc1nc(=O)n(C2OC(CO)C(O)C2O)c2nc[nH]c12 (configuration not stated)
- survivor count (T/C endpoint: mean survival time, dose: 200.0 mg/kg/injection, schedule: Q01DX005 (ip), vehicle: water): 3 of 3

Compound: CN1CC=C(c2ccccc2)C(Br)C1 (configuration not stated)
- survivor count [11]: 3 of 6
- survivor count [8]: 0 of 6
- survivor count [9]: 0 of 6

Compound: COCC1C(N)C(C)NC(Cl)C1C#N (configuration not stated)
- survivor count [9]: 4 of 6

Compound: COc1cc(Cc2cnc(NC(C)=O)nc2NC(C)=O)cc(OC)c1OC
- survivor count [10]: 6 of 6
- survivor count [7]: 6 of 6

Compound: O=c1[nH]cnc2c1nc(N1CCCC1)n2C1OC(CO)C(O)C1O (configuration not stated)
- survivor count (T/C endpoint: mean survival time, dose: 200.0 mg/kg/injection, schedule: Q01DX005 (ip), vehicle: distilled water + Tween-80): 2 of 6

Compound: [Ni+2].[S-]Cc1ccccc1.[S-]Cc1ccccc1
- survivor count [12]: 2 of 6

Compound: CC(C)c1cccc(O)c(=O)c1
- survivor count [8]: 3 of 6

Compound: CC(=O)OCC1OC([S][Sb]([CH3])[CH3])C(OC(C)=O)C(OC(C)=O)C1OC(C)=O (configuration not stated)
- survivor count (T/C endpoint: mean survival time, dose: 100.0 mg/kg/injection, schedule: Q01DX009 (ip), vehicle: Klucel (hydroxypropylcellulose) (HPC)): 0 of 3
- survivor count (T/C endpoint: mean survival time, dose: 200.0 mg/kg/injection, schedule: Q01DX009 (ip), vehicle: Klucel (hydroxypropylcellulose) (HPC)): 0 of 3

Compound: O=C(CCl)Cc1ccccc1
- survivor count [12]: 1 of 6

Compound: Nc1nnnc2c1ncn2C1OC(CO)C(O)C1O (configuration not stated)
- T/C [1]: 130 % of control
- T/C [2]: 130 % of control

Compound: CCC(=O)c1ccc2c(c1)N(C(C)CN(C)C)c1ccccc1S2 (configuration not stated)
- survivor count [5]: 2 of 6

Compound: NC(=S)N/N=C/c1ccc(Br)cn1
- survivor count [13]: 1 of 3
- survivor count [14]: 0 of 3
- survivor count (T/C endpoint: mean survival time, dose: 200.0 mg/kg/injection, schedule: Q04DX002 (ip), vehicle: saline with Tween-80): 0 of 3
- survivor count (T/C endpoint: mean survival time, dose: 400.0 mg/kg/injection, schedule: Q04DX002 (ip), vehicle: saline with Tween-80): 0 of 3

Compound: O=S=Nc1ccc(S(=O)(=O)c2ccc(N=S=O)cc2)cc1
- survivor count [11]: 2 of 6
- survivor count [3]: 3 of 6

Compound: O=C(O)c1c2c(nc3c(Cl)cccc13)-c1ccccc1C2
- survivor count [9]: 2 of 6

Compound: [Cl][Pt+2][Cl].[NH-]CC(C[NH-])(Cc1ccccc1)Cc1ccccc1
- T/C (T/C endpoint: mean survival time, dose: 3.12 mg/kg/injection, schedule: Q04DX003 (ip), vehicle: saline): 125 % of control
- T/C (T/C endpoint: mean survival time, dose: 25.0 mg/kg/injection, schedule: Q04DX003 (ip), vehicle: saline): 131 % of control
- T/C (T/C endpoint: mean survival time, dose: 50.0 mg/kg/injection, schedule: Q04DX003 (ip), vehicle: saline): 127 and 135 % of control
- T/C [4]: 137 % of control (2×)
- T/C [5]: 138 % of control

Compound: COc1ccc(C[C@@H]2NC[C@@H](O)[C@@H]2OC(C)=O)cc1
- survivor count [9]: 3 of 6

Compound: c1ccc2sc(SCCSc3nc4ccccc4s3)nc2c1
- survivor count [13]: 3 of 3
- survivor count [14]: 3 of 3

Compound: COc1cc(C)ccc1Cl
- survivor count [9]: 3 of 6

Compound: CC1=CC(=O)C(c2ccc(O)cc2O)=CC1=O
- survivor count [10]: 4 of 6
- survivor count [7]: 0 of 6
- survivor count [3]: 0 of 6

Compound: O=C1CCC(=O)N1C1C=CC=CC=C1
- survivor count (T/C endpoint: mean survival time, dose: 200.0 mg/kg/injection, schedule: Q04DX003 (ip), vehicle: acetone): 3 of 6

Compound: O=c1[nH]c(=O)n(C2CC(O)C(CO)O2)cc1I (configuration not stated)
- T/C (T/C endpoint: mean survival time, dose: 125.0 mg/kg/injection, schedule: Q01DX009 (ip), vehicle: saline): 136 % of control
- T/C (T/C endpoint: mean survival time, dose: 250.0 mg/kg/injection, schedule: Q01DX009 (ip), vehicle: saline): 148 % of control [5 of 6 alive]

Compound: N#Cc1ccc(NN=O)nc1
- T/C (T/C endpoint: median survival time, dose: 9.0 mg/kg/injection, schedule: Q01DX005 (ip), vehicle: water): 128 and 129 % of control
- T/C (T/C endpoint: median survival time, dose: 25.0 mg/kg/injection, schedule: Q01DX005 (ip), vehicle: water): 142 % of control
- T/C (T/C endpoint: median survival time, dose: 41.6 mg/kg/injection, schedule: Q01DX005 (ip), vehicle: water): 137 % of control
- survivor count (T/C endpoint: median survival time, dose: 69.44 mg/kg/injection, schedule: Q01DX005 (ip), vehicle: water): 5 of 6

Compound: NCCS[As](=O)(O)SCCN
- survivor count [4]: 2 of 6
- survivor count [5]: 0 of 6
- survivor count [6]: 0 of 6

Compound: N#CS.[Tl]
- survivor count (T/C endpoint: mean survival time, dose: 75.0 mg/kg/injection, schedule: Q01DX001 (ip), vehicle: carboxymethylcellulose (CMC)): 0 of 6
- survivor count (T/C endpoint: mean survival time, dose: 150.0 mg/kg/injection, schedule: Q01DX001 (ip), vehicle: carboxymethylcellulose (CMC)): 0 of 6
- survivor count (T/C endpoint: mean survival time, dose: 300.0 mg/kg/injection, schedule: Q01DX001 (ip), vehicle: carboxymethylcellulose (CMC)): 0 of 6

Compound: CCCCCCCCCCCCCCCc1nnc(SC)s1
- survivor count [8]: 6 of 6
